Results are given in words; binding and its absence hold for the method and conditions named. In cells and extracts the contact can be indirect. Some binding calls cover weakened binding; strength is not graded here.
Tests used:
Test in all cases: FRET or BRET; receptor-Rluc8 and Venus-β-arrestin2 co-transfected in HEK293T cells; PBS with 0.1% glucose, 5 µM Coelenterazine-H; BRET (540/480 nm) read 10 min after adding chemokine (CXCL12 or CXCL11) and/or VUN701
[1] = molecular target: ACKR3 L293C (human)
[2] = molecular target: ACKR3 A271C (human)
[3] = molecular target: ACKR3 A271C L293C (human)

Measured: binding

β-arrestin2 (from UniProt P32121 1-409)
binds: [1] | [2] | [3]

Reference: PMC11139983
